Laboratory results from article PMC5635695, “More than Enzymes That Make or Break Cyclic Di-GMP—Local Signaling in the Interactome of GGDEF/EAL Domain Proteins of Escherichia coli” (mBio, 2017).
These are yes or no findings as the source states them, for the method shown. Some results given as binding are weak or reduced against the parent protein; the word gives no strength.

The chains behind the UniProt entries cited, without tags or fusion partners.
UniProt P13445: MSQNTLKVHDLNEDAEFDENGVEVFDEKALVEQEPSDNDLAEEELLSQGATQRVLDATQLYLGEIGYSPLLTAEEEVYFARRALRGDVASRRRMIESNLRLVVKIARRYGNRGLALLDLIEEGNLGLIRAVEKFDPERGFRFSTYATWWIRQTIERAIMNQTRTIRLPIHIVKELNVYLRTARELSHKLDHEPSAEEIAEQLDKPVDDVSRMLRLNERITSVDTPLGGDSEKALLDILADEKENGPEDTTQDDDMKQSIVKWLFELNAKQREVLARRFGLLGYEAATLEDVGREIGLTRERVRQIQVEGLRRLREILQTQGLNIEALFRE

Assays:
Test in all cases: two-hybrid; Bacterio-Match II bacterial two-hybrid in an E. coli reporter strain (derivative of XL1-Blue MRF'); hybrids with lambda cI-NTD (pBT) and RNAP alpha-NTD (pTRG), vector swaps; HIS3 reporter, selective plates with 5 mM 3-AT, 50 uM IPTG, 24 h at 37°C then 48 h at 28°C; CFU ratio selective/nonselective normalised to the RpoS/RssB interaction
[1] = biological target: stationary-phase sigma factor RpoS (E. coli) (UniProt P13445)
[2] = biological target: T1, isolated degenerate GGDEF domain of PdeR (E. coli K-12) (UniProt P77334)
T1 sequence: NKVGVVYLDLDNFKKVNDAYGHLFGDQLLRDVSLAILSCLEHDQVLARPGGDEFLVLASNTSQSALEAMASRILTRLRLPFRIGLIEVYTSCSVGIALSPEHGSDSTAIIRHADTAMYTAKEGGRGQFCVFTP

[3] = biological target: isolated GGDEF domain of DgcO (E. coli K-12) (UniProt P0AA89)
[4] = biological target: isolated GGDEF domain of DgcM (E. coli K-12) (UniProt P77302)
[5] = biological target: isolated degenerate GGDEF domain of PdeK (E. coli K-12) (UniProt P37649)
[6] = biological target: T2, isolated GGDEF domain of DgcT (E. coli K-12) (UniProt P75908)
T2 sequence: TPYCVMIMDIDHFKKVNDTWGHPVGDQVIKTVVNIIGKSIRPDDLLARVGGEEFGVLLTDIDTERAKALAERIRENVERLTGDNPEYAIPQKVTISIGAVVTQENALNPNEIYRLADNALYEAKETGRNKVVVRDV

PdeR (E. coli K-12) = biological target: T3, PdeR (E. coli K-12) (UniProt P77334)
T3 sequence: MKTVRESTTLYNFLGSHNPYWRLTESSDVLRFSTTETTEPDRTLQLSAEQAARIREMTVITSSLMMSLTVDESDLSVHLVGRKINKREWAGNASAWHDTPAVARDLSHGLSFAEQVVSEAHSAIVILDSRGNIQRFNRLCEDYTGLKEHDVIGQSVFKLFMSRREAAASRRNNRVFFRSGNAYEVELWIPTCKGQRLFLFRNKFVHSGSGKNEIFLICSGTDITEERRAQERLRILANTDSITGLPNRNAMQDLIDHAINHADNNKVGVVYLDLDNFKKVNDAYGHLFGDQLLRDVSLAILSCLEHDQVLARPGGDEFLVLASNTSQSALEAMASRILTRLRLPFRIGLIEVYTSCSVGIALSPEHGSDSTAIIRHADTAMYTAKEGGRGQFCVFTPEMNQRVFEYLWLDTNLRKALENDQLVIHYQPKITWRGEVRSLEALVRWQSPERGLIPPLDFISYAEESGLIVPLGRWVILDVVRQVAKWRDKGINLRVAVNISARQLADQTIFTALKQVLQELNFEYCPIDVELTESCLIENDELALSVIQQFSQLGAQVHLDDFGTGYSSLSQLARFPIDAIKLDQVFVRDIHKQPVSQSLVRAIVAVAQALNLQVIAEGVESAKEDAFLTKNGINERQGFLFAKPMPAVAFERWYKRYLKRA

B1: RssB, RpoS-binding proteolytic targeting factor (protein, UniProt P0AEV1 1-337)
chain: MTQPLVGKQILIVEDEQVFRSLLDSWFSSLGATTVLAADGVDALELLGGFTPDLMICDIAMPRMNGLKLLEHIRNRGDQTPVLVISATENMADIAKALRLGVEDVLLKPVKDLNRLREMVFACLYPSMFNSRVEEEERLFRDWDAMVDNPAAAAKLLQELQPPVQQVISHCRVNYRQLVAADKPGLVLDIAALSENDLAFYCLDVTRAGHNGVLAALLLRALFNGLLQEQLAHQNQRLPELGALLKQVNHLLRQANLPGQFPLLVGYYHRELKNLILVSAGLNATLNTGEHQVQISNGVPLGTLGNAYLNQLSQRCDAWQCQIWGTGGRLRLMLSAE
[1]
  binding: binds

B2: isolated GGDEF domain of DgcE (domain or fragment, UniProt P38097 712-845)
chain: QRHALVFIDLDRFKAVNDSAGHAAGDALLRELASLMLSMLRSSDVLARLGGDEFGLLLPDCNVESARFIATRIISAVNDYHFIWEGRVHRVGASAGITLIDDNNHQAAEVMSQADIACYASKNGGRGRVTVYEP
[2]
  binding: binds

B3: isolated GGDEF domain of DgcN (domain or fragment, UniProt P46139 278-408)
chain: KTSALLFLDGDNFKYINDTWGHATGDRVLIEIAKRLAEFGGLRHKAYRLGGDEFAMVLYDVQSESEVQQICSALTQIFNLPFDLHNGHQTTMTLSIGYAMTIEHASAEKLQELADHNMYQAKHQRAEKLVR
[2]
  binding: binds

B4: isolated GGDEF domain of DgcO (domain or fragment, UniProt P0AA89 325-458)
chain: TPLSVLIIDVDKFKEINDTWGHNTGDEILRKVSQAFYDNVRSSDYVFRYGGDEFIIVLTEASENETLRTAERIRSRVEKTKLKAANGEDIALSLSIGAAMFNGHPDYERLIQIADEALYIAKRRGRNRVELWKA
[3]
  binding: binds
[2]
  binding: binds

B5: isolated GGDEF domain of DgcM (domain or fragment, UniProt P77302 283-410)
chain: QDYSLLLIDTDRFKHINDLYGHSKGDEVLCALARTLESCARKGDLVFRWGGEEFVLLLPRTPLDTALSLAETIRVSVAKVSISGLPRFTVSIGVAHHEGNESIDELFKRVDDALYRAKNDGRNRVLAA
[4]
  binding: binds

B6: isolated degenerate GGDEF domain of PdeK (domain or fragment, UniProt P37649 268-400)
chain: QTTALMIITCETLRDTAGVLKEAQREILLLTLVEKLKSVLSPRMILAQISGYDFAVIANGVQEPWHAITLGQQVLTIMSERLPIERIQLRPHCSIGVAMFYGDLTAEQLYSRAISAAFTARHKGKNQIQFFDP
[5]
  binding: binds

B7: isolated degenerate GGDEF domain of PdeR (domain or fragment, UniProt P77334 265-397)
chain: T1 sequence
[2]
  binding: binds

B8: isolated degenerate GGDEF domain of CsrD (domain or fragment, UniProt P13518 254-387)
chain: THGIVMMIRLPDFNMLSDTWGHSQVEEQFFTLTNLLSTFMMRYPGALLARYHRSDFAALLPHRTLKEAESIAGQLIKAVDTLPNNKMLDRDDMIHIGICAWRSGQDTEQVMEHAESATRNAGLQGGNSWAIYDD
[6]
  binding: binds

B9: DgcM (enzyme, UniProt P77302 1-410)
chain: MITHNFNTLDLLTSPVWIVSPFEEQLIYANSAAKLLMQDLTFSQLRTGPYSVSSQKELPKYLSDLQNQHDIIEILTVQRKEEETALSCRLVLRKLTETEPVIIFEGIEAPATLGLKASRSANYQRKKQGFYARFFLTNSAPMLLIDPSRDGQIVDANLAALNFYGYNHETMCQKHTWEINMLGRRVMPIMHEISHLPGGHKPLNFVHKLADGSTRHVQTYAGPIEIYGDKLMLCIVHDITEQKRLEEQLEHAAHHDAMTGLLNRRQFYHITEPGQMQHLAIAQDYSLLLIDTDRFKHINDLYGHSKGDEVLCALARTLESCARKGDLVFRWGGEEFVLLLPRTPLDTALSLAETIRVSVAKVSISGLPRFTVSIGVAHHEGNESIDELFKRVDDALYRAKNDGRNRVLAA
PdeR (E. coli K-12)
  binding: binds

B10: DgcO (enzyme, UniProt P0AA89 1-460)
chain: MEMYFKRMKDEWTGLVEQADPPIRAKAAEIAVAHAHYLSIEFYRIVRIDPHAEEFLSNEQVERQLKSAMERWIINVLSAQVDDVERLIQIQHTVAEVHARIGIPVEIVEMGFRVLKKILYPVIFSSDYSAAEKLQVYHFSINSIDIAMEVMTRAFTFSDSSASKEDENYRIFSLLENAEEEKERQIASILSWEIDIIYKILLDSDLGSSLPLSQADFGLWFNHKGRHYFSGIAEVGHISRLIQDFDGIFNQTMRNTRNLNNRSLRVKFLLQIRNTVSQIITLLRELFEEVSRHEVGMDVLTKLLNRRFLPTIFKREIAHANRTGTPLSVLIIDVDKFKEINDTWGHNTGDEILRKVSQAFYDNVRSSDYVFRYGGDEFIIVLTEASENETLRTAERIRSRVEKTKLKAANGEDIALSLSIGAAMFNGHPDYERLIQIADEALYIAKRRGRNRVELWKASL
PdeR (E. coli K-12)
  binding: binds
